The test system of this series is Goat anti-Mouse antibody. The experiment in a line: Goat anti-Mouse antibody labeling (degree of labeling). The conditions noted are these: for Degree of Labeling (antibody, long incubation): room temperature.

Consider `N=c1ccc2c(-c3ccc(C(=O)Oc4c(Cl)cc(S(=O)(=O)O)cc4Cl)cc3C(=O)O)c3ccc(N)c(S(=O)(=O)O)c3oc-2c1S(=O)(=O)O` [Compound 102], for which the “Goat anti-Mouse Antibody Degree of Labeling” value was determined as 2.1 (10 mM HEPES buffer pH 8.2, 0.2M NaCl, Molar Ratio 5, room temperature 1 hour); 3.2 (10 mM HEPES buffer pH 8.2, 0.2M NaCl, Molar Ratio 10, room temperature 1 hour); 4.8 (10 mM HEPES buffer pH 8.2, 0.2M NaCl, Molar Ratio 15, room temperature 1 hour); 5.0 (10 mM HEPES buffer pH 8.2, 0.2M NaCl, Molar Ratio 20, room temperature 1 hour); 2.2 (20 mM Tris buffer pH 8.6, Molar Ratio 5, room temperature 1 hour); 3.0 (20 mM Tris buffer pH 8.6, Molar Ratio 10, room temperature 1 hour). In addition, the “Goat anti-Mouse Antibody Degree of Labeling” value reads like this: (20 mM Tris buffer pH 8.6, Molar Ratio 15, room temperature 1 hour) 3.5; (20 mM Tris buffer pH 8.6, Molar Ratio 20, room temperature 1 hour) 3.8; (25 mM phosphate buffer pH 8.6, Molar Ratio 5, room temperature 1 hour) 4.5; (25 mM phosphate buffer pH 8.6, Molar Ratio 10, room temperature 1 hour) 7.5; (25 mM phosphate buffer pH 8.6, Molar Ratio 15, room temperature 1 hour) 10.0; (25 mM phosphate buffer pH 8.6, Molar Ratio 20, room temperature 1 hour) 12.6. In addition, the “Degree of Labeling (antibody, long incubation)” value (10 mM HEPES buffer pH 8.2, 0.2M NaCl, molar ratio of 12, incubation 20 hrs) worked out at 8.6; the “Degree of Labeling (antibody, long incubation)” value (20 mM Tris buffer pH 8.6, molar ratio of 12, incubation 12 hrs) turned out to be 7.5; the “Degree of Labeling (antibody, long incubation)” value (25 mM phosphate buffer pH 7.2, molar ratio of 12, incubation 6 hrs) is recorded as 6.5; the “Degree of Labeling (antibody, long incubation)” value (25 mM phosphate buffer pH 8.6, molar ratio of 12, incubation 3 hrs) is 8.9.

The values above are taken from patent publication US8586743B2, “Labeling reagents and methods of their use” (Life Technologies Corporation, priority 2007, dated 2013).
